Laboratory results published in patent US20180228743A1, “COMPOUNDS AND METHODS OF PROMOTING MYELINATION” (Case Western Reserve University, priority 2016, published 2018).
Where a name gives a salt, the structure may show the parent alone.

By UniProt entry, the sequences of proteins in these tests, tags left out.
UniProt P08912, whole entry: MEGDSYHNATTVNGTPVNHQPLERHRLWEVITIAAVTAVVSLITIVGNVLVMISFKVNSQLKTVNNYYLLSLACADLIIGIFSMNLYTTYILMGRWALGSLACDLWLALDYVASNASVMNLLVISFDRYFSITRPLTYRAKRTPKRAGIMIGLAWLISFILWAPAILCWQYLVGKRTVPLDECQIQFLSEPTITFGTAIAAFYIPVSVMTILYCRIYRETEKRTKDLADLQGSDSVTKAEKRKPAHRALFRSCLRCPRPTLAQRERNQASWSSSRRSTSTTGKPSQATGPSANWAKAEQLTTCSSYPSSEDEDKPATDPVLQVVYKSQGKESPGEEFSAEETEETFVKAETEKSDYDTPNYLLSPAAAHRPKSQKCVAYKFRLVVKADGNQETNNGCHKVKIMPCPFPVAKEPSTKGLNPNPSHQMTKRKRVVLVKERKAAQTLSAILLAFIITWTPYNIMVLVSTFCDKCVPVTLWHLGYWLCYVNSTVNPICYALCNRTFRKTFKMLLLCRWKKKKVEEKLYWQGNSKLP

Experiments:
EpiSC-derived OPCs = assay: High-throughput screening of 3,000 bioactive small molecules for MBP+ oligodendrocyte formation from OPCs; type: cell-based, mouse; settings: 2 μM, 72 h
EBP = biological target: T1, EBP (Mus musculus, UniProt P70245); assay: EBP enzymatic assay (GC/MS); type: biochemical; settings: 10 μM, zymostenol 25 μM
T1 construct: active EBP was obtained from mouse microsomes; from tissue
T1 sequence (P70245 1-230): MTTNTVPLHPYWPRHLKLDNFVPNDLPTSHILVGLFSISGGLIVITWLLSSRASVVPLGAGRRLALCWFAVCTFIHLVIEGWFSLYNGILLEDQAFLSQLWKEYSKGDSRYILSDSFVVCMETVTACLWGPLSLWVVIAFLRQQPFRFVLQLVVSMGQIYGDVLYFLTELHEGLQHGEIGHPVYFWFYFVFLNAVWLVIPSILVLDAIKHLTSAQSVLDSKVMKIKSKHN

muscarinic receptor M5 = muscarinic receptor M5 (Homo sapiens, UniProt P08912); settings: 2 μM

inhibition of EBP enzymatic activity (EBP): clear inhibition
inhibition of muscarinic receptor M5 isoform (muscarinic receptor M5): near-complete inhibition
Compound: CN1CCC[C@@H]1CCO[C@](C)(c1ccccc1)c1ccc(Cl)cc1 [Clemastine fumarate]
cell viability (% relative to DMS0) (EpiSC-derived OPCs): 82.59%
